Reference: paper doi:10.1101/2022.05.13.491604
These are yes or no findings as the source states them, for the method shown. Binding seen in cells or lysates may run through a third protein. Some results given as binding are weak or reduced against the parent protein; the word gives no strength. Where a sequence is shown, tags or fusion partners need not be part of it.

The chains behind the UniProt entries cited, without tags or fusion partners.
UniProt P13681: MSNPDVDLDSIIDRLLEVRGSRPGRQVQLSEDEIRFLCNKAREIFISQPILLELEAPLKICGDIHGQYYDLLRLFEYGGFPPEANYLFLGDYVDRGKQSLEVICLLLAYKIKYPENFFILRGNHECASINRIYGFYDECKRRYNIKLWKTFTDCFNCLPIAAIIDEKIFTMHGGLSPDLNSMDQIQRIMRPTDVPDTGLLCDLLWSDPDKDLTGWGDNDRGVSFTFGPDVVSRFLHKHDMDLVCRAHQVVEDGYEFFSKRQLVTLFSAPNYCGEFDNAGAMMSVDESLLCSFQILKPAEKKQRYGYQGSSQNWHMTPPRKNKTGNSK

What was measured:
[1] = target: Myc-tagged Dis2 (PP1) (fission yeast (Schizosaccharomyces pombe)) (UniProt P13681); test: co-IP
[2] = target: T1, Myc-tagged Sds21 (PP1) (fission yeast (Schizosaccharomyces pombe)) (UniProt P23880); test: co-IP
T1 sequence: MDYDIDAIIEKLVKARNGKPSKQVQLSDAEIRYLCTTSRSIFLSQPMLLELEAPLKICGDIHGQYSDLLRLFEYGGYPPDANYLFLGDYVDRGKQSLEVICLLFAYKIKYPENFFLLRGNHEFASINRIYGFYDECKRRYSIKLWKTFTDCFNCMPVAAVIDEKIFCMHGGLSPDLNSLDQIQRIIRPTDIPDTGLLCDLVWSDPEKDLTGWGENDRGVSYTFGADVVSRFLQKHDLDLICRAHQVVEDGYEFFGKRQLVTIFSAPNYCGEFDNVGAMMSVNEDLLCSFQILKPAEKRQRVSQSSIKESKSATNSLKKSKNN

B1: Flag-tagged Rif1 (wild type) (protein, UniProt Q96UP3 1-1400)
chain: MTKEIAVKEASNMLLQEPSTPSSQAVGLSSSPSSSIRKKKVNFSSELENSPGGNRPSFGLPKRGILKTSTPLSSIKQPNFQSFEGNESEKETSLQELQSSFCSGIENLQHVEKSARIETYSKLSSFLKIYTPSLPEDPIFPLLNQLCNFLLSDRCSNNSEGSPDFQLNTQANKLLSILLWHPTISSHIQPETATVFIEQSLNFLEGPKLTKALAAQHLHLLSCQKCPLSIHPLCNRILDVCFNISFPSLVIGQERLAVLTKILSQFPLEFSRRVVDWAPYLLACLVDASRPIREKALLLALDLSKHLYHDKLVARTILANFRSDIKGTAFVLIMTEQFEKLVIEEDDGVYVAHAWAAIISVLGGARISSWEYFNTWLKIIQLCFNSMNPLTKCAAQTSWIRLIHEFSLSETLTQATKRLTLLCQPISMVLGSRNLPTVKNAAMTTLIALIYACLRPGISDAMLSLLWDSVIVNILEKCALKNEVTIFESSNILLALFNTLSNGVWKDDRLVCRESVEAKELPKLNPVWVRANCSRTIEPVKTLLLLAKPDHTVKTTTPARKQHIRGLSYEQSSSVWSTYIKCLASAGQKEIKRSVETGRAICCICSSLHKFLYSKSIRKDELYVERVSRFALMVKSAIEAFGINTFVEASYLVSDNQLVLIDQTKAIDSYDHVPISPLIYLLHSLALLTNGTLFSTVHAAYSSILSSIEEYHLRFGLKLMLLWDCVSPLSDDGTLVLARVLVSHEVSRLTSEALLSELKSRNGNNSVEEGFSEEERSILLKLLSWNVKFCSISDAGSVNNLLQQYFTAIYKFEGCGSVFPFVVDPFTTILDDVLSFEANKVYSFAISLMKVSTFESCTKELPPVTLPENIRQHLDSYNHMVELYNTLLQRLSSSDQVDLQCRYLHELSEFIKKIPKEFIFHTICKLSKGLIPCFLMNAFPQLEKSTTLQKSCTNFCILILQLLLNSTATASNILESLSPLLTSGLKSISKEVVLAAIKFWNQVFGKFESEEYPIELQKTISYLSKTYIILLPFQSLCPGGKQANHQSSEKMSDILKGVDELRSVSKNGPYASSQDKGEKTTEFSGPGKPNNDNYIQIASVQELDDSSKGKAGKMPASKKNKRQKGDVKKIDETKNEATDMEESLTTPSGKVNKEVIVDDTSLRDEAIVPDKAIDVADNSNALLKENISSQSNRKADNNGTPSVNNSFTTANNDECSKENSQIEPEGQTASREGVLSTPRSTRKKRKLGRKSQSSNVNKEVAISEVSATLENVEVIERHGISEQGQNLDESACVLTNESSLSQTEIPEEKTENETTAVNGFENSKKRQFSSLLSGSIDTNNESNKVSSVEFDKSGPQDIIQSMTEATFEIEKNIQDLKSEEVQKLSDLLMRLQRAILSRIA
[1]
  binding: binds
[2]
  binding: binds
